{
  "sequences": {"note": "The chains behind the UniProt entries cited, without tags or fusion partners. Residues count along the entry.", "UniProt P29317, residues 24-537": "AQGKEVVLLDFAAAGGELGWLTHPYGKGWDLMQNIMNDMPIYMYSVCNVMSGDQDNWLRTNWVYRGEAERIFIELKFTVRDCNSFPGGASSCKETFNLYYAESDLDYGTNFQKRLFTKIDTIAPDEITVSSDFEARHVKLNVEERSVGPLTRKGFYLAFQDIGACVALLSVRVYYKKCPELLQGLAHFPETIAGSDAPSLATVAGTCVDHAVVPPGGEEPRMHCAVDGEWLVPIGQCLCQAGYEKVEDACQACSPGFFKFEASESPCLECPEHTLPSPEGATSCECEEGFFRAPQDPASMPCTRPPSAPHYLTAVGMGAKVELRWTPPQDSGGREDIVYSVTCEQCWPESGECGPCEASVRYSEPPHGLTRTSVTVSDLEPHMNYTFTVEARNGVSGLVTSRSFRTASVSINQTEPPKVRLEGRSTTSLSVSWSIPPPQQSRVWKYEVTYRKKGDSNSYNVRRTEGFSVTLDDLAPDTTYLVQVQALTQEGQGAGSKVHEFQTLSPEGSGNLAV", "UniProt P20827, residues 19-182": "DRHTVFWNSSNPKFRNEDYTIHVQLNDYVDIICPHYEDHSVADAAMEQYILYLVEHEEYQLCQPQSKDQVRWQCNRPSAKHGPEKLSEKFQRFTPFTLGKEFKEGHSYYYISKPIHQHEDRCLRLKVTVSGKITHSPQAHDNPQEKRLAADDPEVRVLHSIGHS"},
  "source": "patent US20040091486A1",
  "key": {"[1]": {"biological_target": "EphA2-Fc, fusion protein consisting of the extracellular domain of EphA2 linked to human IgG1 constant region (human) (UniProt P29317)", "assay": "ELISA, Ephrin A1-Fc coated on the plate; very little additional biotinylated Ephrin A1-Fc bound the complex"}, "[2]": {"biological_target": "EphA2-Fc, fusion protein consisting of the extracellular domain of EphA2 linked to human IgG1 constant region (human) (UniProt P29317)", "assay": "ELISA, Ephrin A1-Fc immobilized on the plate"}},
  "note": "These are yes or no findings as the source states them, for the method shown. Some entries that bind do so weakly or less than the wild type.",
  "data": [
    {"substance": "Ephrin A1-Fc (from UniProt P20827 19-182) (Fc fusion)", "values": [
      {"measurement": "binding", "setting": "[1]", "value": "binds"},
      {"measurement": "binding", "setting": "[2]", "value": "binds"}
    ]}
  ]
}
